Measured values: publication PMC5967306
These are yes or no findings as the source states them, for the method shown. Binding seen in cells or lysates may run through a third protein. Binding can be weak; no strength is given.

By UniProt entry, the sequences of proteins in these tests, tags left out. Where a name states a change or a piece, a line headed by the entry shows the natural chain unless it says otherwise.
UniProt Q4G0A6: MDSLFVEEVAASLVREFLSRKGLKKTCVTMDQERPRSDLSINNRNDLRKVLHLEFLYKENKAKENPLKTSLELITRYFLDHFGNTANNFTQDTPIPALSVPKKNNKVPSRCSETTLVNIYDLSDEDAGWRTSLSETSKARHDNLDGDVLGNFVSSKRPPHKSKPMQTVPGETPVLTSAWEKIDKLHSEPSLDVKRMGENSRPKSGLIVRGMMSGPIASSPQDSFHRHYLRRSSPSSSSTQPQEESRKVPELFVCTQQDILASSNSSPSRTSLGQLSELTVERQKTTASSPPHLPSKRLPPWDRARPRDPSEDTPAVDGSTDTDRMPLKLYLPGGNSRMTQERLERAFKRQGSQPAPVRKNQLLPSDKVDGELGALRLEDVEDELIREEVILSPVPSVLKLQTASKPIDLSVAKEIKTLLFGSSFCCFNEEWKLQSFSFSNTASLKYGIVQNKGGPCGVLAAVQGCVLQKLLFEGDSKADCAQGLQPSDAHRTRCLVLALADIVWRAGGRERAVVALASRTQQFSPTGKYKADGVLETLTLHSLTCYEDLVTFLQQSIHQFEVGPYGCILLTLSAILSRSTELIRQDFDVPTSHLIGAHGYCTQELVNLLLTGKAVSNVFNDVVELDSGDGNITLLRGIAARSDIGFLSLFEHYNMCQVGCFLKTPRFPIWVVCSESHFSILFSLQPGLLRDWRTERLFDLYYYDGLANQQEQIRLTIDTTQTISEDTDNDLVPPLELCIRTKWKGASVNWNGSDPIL

Target: FLAG-tagged mutant FAM188B with deletion of USP7-binding motif-2 (human) (UniProt Q4G0A6)
Test: co-IP; FLAG-tagged wild-type or deletion-mutant FAM188B overexpressed in HCT-116 cells, immunoprecipitated with anti-FLAG antibodies, blotted for USP7

binding: binds
Substance: USP7 (from UniProt Q93009 1-1102) (enzyme)
